Among all 330,000 compounds or so, about 7,700 (2.3%) were called active. Inconclusive results, whose numbers are uncertain, are shown with a selection of clear calls. Calls follow the shape of the dose curve; as a rule, active = well fitted inhibition curve with a large enough effect; inconclusive = small, poorly fitted or top-dose-only effect, or effect the other way; inactive = flat fitted curve, though single readings scatter. Potencies of inconclusive entries are doubtful fits and often do not repeat.
Test: qHTS screen for small molecules that inhibit ELG1-dependent DNA repair in human embryonic kidney (HEK293T) cells expressing luciferase-tagged ELG1; also: nearly all actives have a fitted effect of over 55% in size
Conditions: HEK293T ELG1-luciferase reporter, luminescence, 16 h, DNA damage induced by 5-fluorouridine; activity change, negative = inhibition: at 46.1 µM (top of the series)
Outline: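 HEK293T cells expressing luciferase-tagged ELG1 (2,000/well) received 5-Fluorouridine plus compound or DMSO for 16 hr at 37 °C. Luciferase was read by ONE-Glo luminescence after 30 min at room temperature.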
% is scaled to controls: 0 for no effect and ±100 for the full control effect; potency is read from the fitted curve at half-maximal effect.

| Structure (SMILES) | Potency | activity change, negative = inhibition |
| --- | --- | --- |
| Cc1cc(NCCCN(C)C)n2nc(-c3cccs3)cc2n1 | inconclusive: 20.6 µM [activator, partial curve, poor fit] | – |
| CCOc1ccc(C(=O)Nc2c3c(nn2-c2ccc(C)cc2)CS(=O)C3)cc1OCC (centres undefined) | inconclusive: 3.66 µM [inhibitor, partial curve] | – |
| COc1ccc([C@H]2CC(=O)C=C(/C=C/c3ccccc3)C2)cc1OC | inconclusive: 29.1 µM [inhibitor, single point] | – |
| CCCCCCn1c(CN2CCCCC2C)nc2c1c(=O)n(C)c(=O)n2C (centres undefined) | inconclusive: 23.1 µM [inhibitor, partial curve, poor fit] | – |
| CCOC(=O)C1CCN(C(=O)CCc2c(C)nc3c(-c4ccc(F)cc4)c(C)nn3c2C)CC1 | inconclusive: 23.1 µM [inhibitor, single point] | – |
| NNC(=O)c1oc2nc(-c3cccs3)cc(-c3ccco3)c2c1N | inconclusive: 32.6 µM [inhibitor, partial curve, poor fit] | – |
| CC1Cc2ccccc2N1C(=O)CN1C(=O)NC2(CCCCC2)C1=O (centres undefined) | – | inactive: -1.12% |
| CN(C)S(=O)(=O)c1ccc(C(=O)Nc2cc(S(=O)(=O)Nc3ccccc3Cl)ccc2N2CCCCC2)cc1 | inconclusive: 5.8 µM [inhibitor, partial curve, poor fit] | – |
| Cc1cccc(NC(=O)c2ccc(Cl)c(S(=O)(=O)N3CCCC3)c2)n1 | inconclusive: 9.2 µM [activator, partial curve] | – |
| CCOCCCNC(=O)c1cc2c(-c3ccc(Cl)cc3)nn(C)c2s1 | active: 20.6 µM | – |
| CN(C)S(=O)(=O)c1ccc(Nc2nc(C3CC3)nc3c2nnn3Cc2ccccc2Cl)cc1 | inconclusive: 7.31 µM [inhibitor, partial curve] | – |
| Cc1cccc(C)c1NC(=O)[C@@]1(CC(=O)O)CC(/C=C/c2ccccc2)=NO1 | – | inactive: 7.65% |
| CCOC(=O)c1c(NC(=O)CSc2nnc(-c3cccc(C)c3)n2CC)sc(C(C)=O)c1C | inconclusive: 25.9 µM [inhibitor, partial curve, poor fit] | – |
| Nc1ccc(/C=C/C(=O)c2ccco2)cc1 | inconclusive: 18.4 µM [activator, single point] | – |
| Cc1cccc(C)c1NC(=O)COC(=O)c1cccnc1 | – | inactive: 16.7% |
| O=C(N/N=C/c1ccccn1)c1ccc(Br)cc1 | inconclusive: 20.6 µM [activator, partial curve] | – |
| Cc1ccc(NC(=O)COC(=O)CCOc2ccccc2C)cc1 | – | inactive: 16.9% |
| CSc1nc(-c2ccc(Cl)cc2)nn1S(=O)(=O)c1ccccc1 | inconclusive: 16.4 µM [activator, partial curve] | – |
| Cc1nc(-c2ccc(Cl)cc2)sc1C1(C)CC(c2ccc(OC(F)(F)F)cc2)=NO1 (centres undefined) | inconclusive: 20.6 µM [activator, single point] | – |
| Cc1ccc2c(c1)C=CC(C#N)N2C(=O)c1ccccc1 (centres undefined) | – | inactive: 0.992% |
| COc1ccc(/C(N)=N/OC(=O)C2CCCCC2)cc1 | inconclusive: 11.6 µM [activator, partial curve] | – |
| O=C(CSc1ncc(C(F)(F)F)cc1Cl)N1CCN(S(=O)(=O)c2ccc(Cl)cc2)CC1 | inconclusive: 32.6 µM [inhibitor, partial curve, poor fit] | – |
| Cc1cccc(C(=O)Nc2ccccc2C(=O)OCC(=O)Nc2ccc(C#N)cc2)c1 | inconclusive: 5.8 µM [activator, full curve, poor fit] | – |

| Structure (SMILES) | Potency | activity change, negative = inhibition |
| --- | --- | --- |
| COc1ccccc1CNC(=O)c1cccc(N(C)C)c1 | inconclusive: 25.9 µM [activator, single point] | – |
| O=C(CN1CCCCCC1=O)N1CCN(S(=O)(=O)c2cccs2)CC1 | – | inactive: -13.2% |
| Cc1ccc(Cl)c(NC(=O)CSc2cccc[n+]2[O-])c1Cl | – | inactive: 4.73% |
| COC(=O)c1cc(OC)c(OC)cc1NCC(=O)Nc1ccc(OC)c(OC)c1 | inconclusive: 23.1 µM [inhibitor, single point] | – |
| CCOC(=O)Cc1csc(SCC(=O)c2c(N)n(CC(C)C)c(=O)n(C)c2=O)n1 | active: 5.17 µM | – |
| COc1ccc(-c2cn3ccccc3n2)cc1[N+](=O)[O-] | inconclusive: 9.2 µM [activator, partial curve] | – |
| CCC(C)C(=O)Nc1ccc([N+](=O)[O-])cc1OC (centres undefined) | – | inactive: -3.93% |
| Cc1ccnc2nc(C(=O)OCCOc3cccc(Br)c3)nn12 | – | inactive: 8.65% |
| Cc1cccc(-c2nnn3c2nc(NCCc2ccc(S(N)(=O)=O)cc2)c2ccccc23)c1 | active: 2.59 µM | – |
| Nc1nc(SCC(=O)c2cccs2)n[nH]1 | inconclusive: 32.6 µM [activator, single point] | – |
| C/C(=N\NC(=O)COc1ccccc1)c1cccs1 | inconclusive: 14.6 µM [activator, partial curve] | – |
| CCc1nn(CC(=O)N(C)C2CCCCC2)c(=O)c2cc3cc(C)ccc3n12 | – | inactive: 19.3% |
| Cc1ccc(S(=O)(=O)N2CCCC2)cc1[N+](=O)[O-] | – | inactive: 19.5% |
| COc1ccc(CCN(C)C(=O)c2cc(-c3ccccc3)nc3ccc(C)cc23)cc1OC | inconclusive: 16.4 µM [activator, partial curve] | – |
| CCOC(=O)c1ccc(N2CCOCC2)c(NC(=O)c2nccnc2C(=O)O)c1 | – | inactive: 2.58% |
| COCCNC(=O)C1CC2Cn3c(nc4ccccc43)C2N1C (centres undefined) | – | inactive: 16.2% |
| COC(=O)CNc1nc(-c2ccncc2)nc2ccccc12 | inconclusive: 20.6 µM [inhibitor, single point] | – |
| Cc1cc(C(=O)COc2ncnc3sccc23)c(C)n1C1CC1 | inconclusive: 20.6 µM [activator, partial curve] | – |
| O=C(N/N=C/c1ccccn1)c1cccc([N+](=O)[O-])c1 | inconclusive: 29.1 µM [activator, single point] | – |
| Cc1ccc2nc(-c3ccccn3)oc2c1 | inconclusive: 1.64 µM [activator, partial curve] | – |
| C/C(=N\Nc1nc(N)cc(Cl)n1)c1cccc([N+](=O)[O-])c1 | – | inactive: 17.9% |
| O=C(NC1CCCCC1)C1(S(=O)(=O)c2ccc(Cl)cc2)CC1 | – | inactive: 14.8% |
| COc1ccc(N2CCN(C(=O)c3ccc(NS(=O)(=O)c4ccccc4)cc3)CC2)cc1 | inconclusive: 0.0731 µM [inhibitor, partial curve, poor fit] | – |

Shown as comma-separated lines: part of the list above.
Structure (SMILES),Potency,"activity change, negative = inhibition"
Cc1cc(C(=O)COc2ncnc3sccc23)c(C)n1C1CC1,"inconclusive: 20.6 µM [activator, partial curve]",–
O=C(N/N=C/c1ccccn1)c1cccc([N+](=O)[O-])c1,"inconclusive: 29.1 µM [activator, single point]",–
Cc1ccc2nc(-c3ccccn3)oc2c1,"inconclusive: 1.64 µM [activator, partial curve]",–
C/C(=N\Nc1nc(N)cc(Cl)n1)c1cccc([N+](=O)[O-])c1,–,inactive: 17.9%
O=C(NC1CCCCC1)C1(S(=O)(=O)c2ccc(Cl)cc2)CC1,–,inactive: 14.8%

Remaining list, next part

| Structure (SMILES) | Potency | activity change, negative = inhibition |
| --- | --- | --- |
| CCN(CC)CCN(Cc1cc2ccc(C)cc2[nH]c1=O)C(=O)NC1CCCCC1 | inconclusive: 20.6 µM [activator, partial curve, poor fit] | – |
| COc1ccc(N(CC(=O)NCCC2=CCCCC2)S(=O)(=O)c2ccccc2)c(OC)c1 | – | inactive: -18.4% |
| Cc1cc(Cl)ccc1OCC(=O)N1CCCN(C(=O)COc2ccc(Cl)cc2C)CC1 | inconclusive: 23.1 µM [inhibitor, single point] | – |
| CCOc1ccc2nc(NC(=O)CN3C(=O)NC4(CCCC4)C3=O)sc2c1 | inconclusive: 2.06 µM [activator, partial curve, poor fit] | – |
| O=C(CC1SCCNC1=O)Nc1ccc(F)c(Cl)c1 (centres undefined) | inconclusive: 18.3 µM [activator, single point] | – |
| C[C@]12c3[nH]c4ccccc4c3CCN1C(=O)C(CC(=O)NCCCn1ccnc1)C[C@@H]2C(=O)N1CCOCC1 (some centres undefined) | inconclusive: 29.1 µM [activator, partial curve, poor fit] | – |
| COc1cccc2c(N/N=C/c3ccc(O)c(O)c3)cc(C)nc12 | inconclusive: 16.4 µM [activator, partial curve] | – |
| O=C(/C=C/c1ccc(S(=O)(=O)N2CCOCC2)cc1)N1CCN(c2ccc(F)cc2)CC1 | active: 2.31 µM | – |
| O=C(OCC(=O)N1CCC(Cc2ccccc2)CC1)c1cncc(Br)c1 | – | inactive: 1.42% |
| COc1ccc(OC)c(C(=O)COC(=O)C2CC3CCCC(C2)C3=O)c1 (centres undefined) | inconclusive: 25.9 µM [inhibitor, single point] | – |
| Cc1cc(C)nc(Nc2n[nH]c(-c3ccccc3C)n2)n1 | inconclusive: 14.6 µM [activator, partial curve] | – |
| O=C(CSc1nc(Nc2ccccc2)nc(N2CCOCC2)n1)Nc1cccc([N+](=O)[O-])c1 | active: 20.6 µM | – |
| COc1ccc(OCC(O)CNC(=O)c2ccccc2C(=O)O)cc1 (centres undefined) | inconclusive: 29.1 µM [activator, partial curve, poor fit] | – |
| Cc1ccc2c(c1)nnn2C1CCN(C(=O)C23CC4CC(CC(C4)C2)C3)CC1 | active: 23.1 µM | – |
| CCOC(=O)CN(C(=O)COc1nc(-c2ccccc2)cc(C)c1C#N)c1ccccc1C | active: 20.6 µM | – |
| CN(C)Cc1nc2c(c(=O)[nH]1)C1(CCCCC1)Cc1ccccc1-2 | – | inactive: -21.3% |
| COc1ccc2c(=O)c(-c3nc(C)cs3)coc2c1 | inconclusive: 2.59 µM [activator, partial curve] | – |
| Cc1onc(-c2c(Cl)cccc2Cl)c1C(=O)N/N=C(\N)COc1ccc(Cl)cc1 | inconclusive: 29.1 µM [inhibitor, single point] | – |
| CCOCCc1nnc(NC(=O)c2cc(OC)c(OC)c(OC)c2)s1 | – | inactive: 5.3% |
| COc1ccc(NC(=O)c2cccnc2SC)cc1OC | inconclusive: 25.9 µM [activator, single point] | – |
| CC(=O)[C@@H]1[C@@H]2C(=O)N(c3ccccc3F)C(=O)[C@@H]2[C@H]2c3ccccc3C=NN12 | inconclusive: 16.4 µM [activator, partial curve, poor fit] | – |
| CCOC(=O)c1nnn2c1nc(N1CCN(c3ccccc3)CC1)c1ccccc12 | inconclusive: 18.3 µM [inhibitor, partial curve] | – |
| Cc1ccc(C(=O)NCC(=O)N2CCN(c3ncccn3)CC2)s1 | inconclusive: 20.6 µM [activator, single point] | – |

Source: PubChem BioAssay AID504467 (National Center for Advancing Translational Sciences (NCATS), 2011)
